No constants are given. Whether binding was seen depends on the method and setting. In cells and extracts the contact can be indirect. A yes stands for co-enrichment or nearness to the bait. Other partners may have been found.
Molecular target: T1, 3HA:AGO2 expressed from pAGO2:3HA:AGO2 in the ago2-1 mutant (Arabidopsis thaliana) (UniProt Q9SHF3)
T1 sequence: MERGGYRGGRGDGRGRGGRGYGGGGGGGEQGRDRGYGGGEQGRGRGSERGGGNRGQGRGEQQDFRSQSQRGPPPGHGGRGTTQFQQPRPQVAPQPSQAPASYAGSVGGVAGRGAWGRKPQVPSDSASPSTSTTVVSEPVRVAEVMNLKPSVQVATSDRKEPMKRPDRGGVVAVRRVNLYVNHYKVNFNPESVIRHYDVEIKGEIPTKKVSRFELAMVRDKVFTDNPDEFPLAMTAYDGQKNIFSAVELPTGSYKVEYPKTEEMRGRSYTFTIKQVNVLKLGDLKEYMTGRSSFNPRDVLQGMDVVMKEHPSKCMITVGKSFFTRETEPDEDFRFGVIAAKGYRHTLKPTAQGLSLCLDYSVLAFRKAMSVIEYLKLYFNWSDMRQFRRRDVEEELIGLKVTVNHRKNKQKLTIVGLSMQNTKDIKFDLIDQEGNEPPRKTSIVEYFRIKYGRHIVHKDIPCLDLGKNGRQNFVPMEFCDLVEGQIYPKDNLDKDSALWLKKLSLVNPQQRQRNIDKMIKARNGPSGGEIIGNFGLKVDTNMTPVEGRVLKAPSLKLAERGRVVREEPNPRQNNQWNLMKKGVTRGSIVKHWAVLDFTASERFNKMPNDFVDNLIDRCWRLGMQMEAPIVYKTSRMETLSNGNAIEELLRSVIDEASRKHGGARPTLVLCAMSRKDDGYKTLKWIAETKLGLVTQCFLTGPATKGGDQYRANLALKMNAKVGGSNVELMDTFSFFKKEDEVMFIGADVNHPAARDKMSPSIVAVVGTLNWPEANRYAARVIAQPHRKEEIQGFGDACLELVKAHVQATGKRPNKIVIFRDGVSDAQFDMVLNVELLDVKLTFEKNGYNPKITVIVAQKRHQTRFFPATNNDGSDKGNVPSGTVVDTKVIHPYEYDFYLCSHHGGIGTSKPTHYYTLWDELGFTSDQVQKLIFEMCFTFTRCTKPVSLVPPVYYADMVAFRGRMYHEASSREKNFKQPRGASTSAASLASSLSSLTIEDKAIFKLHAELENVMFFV
Test: affinity purification with mass spectrometry; anti-HA immunoprecipitation from pAGO2:3HA:AGO2/ago2-1 plants treated with Pst (avrRpt2); pAGO7:gus plants as negative control; SDS-PAGE, in-gel trypsin digest, LC-MS/MS, label-free quantification

| binding | Substance |
| --- | --- |
| binds | HSP70, endogenous |
| binds | HSP90, endogenous |
| binds | PRMT5 (protein arginine methyltransferase5), endogenous (enzyme) |

Source: PMC6381116
